No constants are given. Whether binding was seen depends on the method and setting. Binding seen in cells or lysates may run through a third protein. Some binding calls cover weakened binding; strength is not graded here. For some assays here: Tags and fused reporters may be left off the sequences shown.
Legend:
[1] = molecular target: Tumor necrosis factor (TNF)‐related apoptosis‐inducing ligand (TRAIL) (mouse (endogenous in MLE-12)) (UniProt P50592); assay: co-IP; cells in IP lysis buffer; supernatants with protein A/G agarose beads and antibodies at 4 °C overnight; washed with NaCl buffer; immunoblot; cells with or without irradiation or TMEM131 knockdown
[2] = molecular target: truncated HA‐TRAIL, aa 1‐126 (UniProt P50592); assay: co-IP; flag-TMEM131 and HA-TRAIL, each full length or truncated, expressed from plasmids; immunoblot; cells not given
[3] = molecular target: HA‐TRAIL, full length (UniProt P50592); assay: as above

Sequences of proteins named here, by UniProt entry; tags and fusion partners are left off. A change or cut given only in a name is not applied to a line headed by its entry. Residues count along the entry.
UniProt P50592: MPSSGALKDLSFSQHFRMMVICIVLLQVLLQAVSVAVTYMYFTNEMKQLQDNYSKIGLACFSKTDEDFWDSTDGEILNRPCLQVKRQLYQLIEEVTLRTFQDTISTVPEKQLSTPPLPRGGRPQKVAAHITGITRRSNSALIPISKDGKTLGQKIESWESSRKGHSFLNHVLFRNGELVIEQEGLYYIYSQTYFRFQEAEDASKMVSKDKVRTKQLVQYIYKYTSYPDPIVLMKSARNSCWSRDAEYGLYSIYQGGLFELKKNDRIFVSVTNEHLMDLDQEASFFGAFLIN
truncated HA‐TRAIL, aa 1‐126: residues 1-126 of P50592
UniProt Q9DBY1: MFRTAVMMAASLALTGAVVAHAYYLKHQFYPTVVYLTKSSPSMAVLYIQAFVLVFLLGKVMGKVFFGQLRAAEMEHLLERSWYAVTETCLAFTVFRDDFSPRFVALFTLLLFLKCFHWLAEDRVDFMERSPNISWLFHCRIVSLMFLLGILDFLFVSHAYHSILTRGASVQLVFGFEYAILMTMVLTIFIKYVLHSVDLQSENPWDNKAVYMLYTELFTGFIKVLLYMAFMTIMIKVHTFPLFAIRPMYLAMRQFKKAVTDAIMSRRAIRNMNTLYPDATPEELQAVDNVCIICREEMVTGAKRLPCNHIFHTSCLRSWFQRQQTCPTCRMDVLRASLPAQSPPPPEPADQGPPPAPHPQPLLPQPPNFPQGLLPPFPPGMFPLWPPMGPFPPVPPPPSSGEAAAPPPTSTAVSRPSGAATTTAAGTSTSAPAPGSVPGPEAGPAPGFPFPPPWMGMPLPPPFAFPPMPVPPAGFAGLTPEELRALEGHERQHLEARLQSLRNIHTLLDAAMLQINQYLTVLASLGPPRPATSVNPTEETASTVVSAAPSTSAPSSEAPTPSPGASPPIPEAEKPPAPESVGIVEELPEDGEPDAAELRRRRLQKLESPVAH

Row | Molecule | binding [1] | other results
1 | TMEM131 (from UniProt O70472 21-1877) | binds | 
2 | flag‐TMEM131, full length (from UniProt O70472 21-1877) |  | binding [2]: binds
3 | E3 ubiquitin ligase HMG‐CoA reductase degradation protein 1 (HRD1) (from UniProt Q9DBY1 1-612) (enzyme) | binds | 
4 | truncated flag‐TMEM131, aa 1‐106 (domain or fragment, UniProt O70472 21-106) AGLEPAAGRGGGPRSAAAGLLGALHLVMTLVVAAARAEKEAFIQSESIIEVLRFDDGGLLQTETTLGLGSYQQKSISLYRGNCRPI |  | binding [3]: binds
5 | ER degradation enhancing mannosidase (EDEM) 2 (protein, UniProt Q8BJT9 22-577) APGPDGTAPDPAHYRERVKAMFYHAYDSYLENAFPYDELRPLTCDGHDTWGSFSLTLIDALDTLLILGNTSEFQRVVEVLQDNVDFDIDVNASVFETNIRVVGGLLSAHLLSKKAGVEVEAGWPCSGPLLRMAEEAARKLLPAFQTPTGMPYGTVNLLHGVNPGETPVTCTAGIGTFIVEFATLSSLTGDPVFEDVARVALMRLWESRSDIGLVGNHIDVLTGKWVAQDAGIGAGVDSYFEYLVKGAILLQDKKLMAMFLEYNKAIRNYTHFDDWYLWVQMYKGTVSMPVFQSLEAYWPGLQSLIGDIDNAMRTFLNYYTVWKQFGGLPEFYNIPQGYTVEKREGYPLRPELIESAMYLYRATGDPTLLELGRDAVESIEKISKVECGFATIKDLRDHKLDNRMESFFLAETVKYLYLLFHPNNFIHNNGSTFDSVMTPHGECILGAGGYIFNTEAHPIDPAALHCCRRLKEEQWEVEDLIKEFYSLKQSRPKRAQRKTVRSGPWEPQSGPATLSSPANQPREKQPAQQRTPLLSCPSQPFTSKLALLGQVFLDSS | binds | 

— paper PMC12866828
